Reference: PubChem BioAssay AID1259298 (Sanger Institute, 2017)

Purpose: 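Kinase knock-downs that cut colorectal cancer cell viability or act with targeted drugs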 (primary screen)
Cell system: HT55 human colorectal cancer cell line
Knock-down reagent: siRNA pool against human genes
Conditions: anchor drug BYL719 1 µM, cetuximab 5 µg/ml or trametinib 10 nM, or DMSO vehicle alone
Read-out: 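Mean viability over replicates versus non-targeting pool, a robust z-score without drug, and per-drug synergy scores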
Scale: robust z-score, knock-down alone: higher = more cells remaining; low means essential gene; viability vs control pool, no drug: higher = more viable cells; synergy score with BYL719 and synergy score with cetuximab and synergy score with trametinib: higher = stronger synthetic lethality with the drug
Rule for the call: 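a gene counts as essential if its knock-down-alone robust z-score falls under -3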
Meaning of the calls: active = essential (knock-down alone); inactive = no change alone
In all, the deposit lists 794 reagents; this is an unselected part. 20 of them (2.5%) were called active. 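Calls rest only on the knock-down-alone score; drug synergy scores played no part in them.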 Unmarked entries are inactive. No viability above 1 is reported: the scale is capped. Not stated in the record: the amount of reagent, the time to read-out.

| gene | robust z-score, knock-down alone | viability vs control pool, no drug (fraction) | synergy score with BYL719 | synergy score with cetuximab | synergy score with trametinib |
| --- | --- | --- | --- | --- | --- |
| TSSK2 | 0.58 | 1 | -0.208 | -0.0433 | -0.0125 |
| CALM3 | -0.859 | 0.887 | -0.354 | -0.145 | -0.0286 |
| DGKB | -0.808 | 0.891 | -0.109 | 0.0643 | 0.0108 |
| KDR | 0.58 | 1 | -0.0842 | -0.0991 | 0.00583 |
| NTRK1 | -2.14 | 0.787 | -0.0208 | 0.0437 | 0.0106 |
| MINK1 | 0.58 | 1 | -0.112 | 0.0141 | 0.0651 |
| DGUOK | -3.58 (active) | 0.674 | -0.222 | -0.103 | -0.0999 |
| SPHK1 | 0.58 | 1 | -0.11 | -0.0315 | 0.115 |
| MAP3K6 | 0.58 | 1 | -0.107 | -0.211 | 0.0156 |
| ROCK1 | 0.58 | 1 | -0.2 | -0.211 | -0.145 |
| KSR2 | 0.58 | 1 | -0.105 | -0.0348 | 0.0895 |
| BMPR2 | -0.0882 | 0.948 | -0.206 | -0.141 | -0.0879 |
| SMAD4 | 0.333 | 0.981 | 0.0303 | 0.00265 | -0.0527 |
| ADCK5 | 0.0538 | 0.959 | -0.231 | -0.087 | 0.0681 |
| EFNB3 | 0.58 | 1 | -0.272 | -0.0126 | 0.0679 |
| ADCK1 | 0.58 | 1 | -0.0488 | -0.0457 | 0.0772 |
| WHR1 | 0.58 | 1 | -0.272 | -0.0408 | 0.0839 |
| PIK3CA | -0.0251 | 0.953 | -0.181 | -0.015 | 0.00153 |
| PTK2B | 0.58 | 1 | -0.219 | 0.0838 | 0.0788 |
| EPHA1 | 0.58 | 1 | -0.137 | -0.211 | -0.0067 |
| MAGI1 | 0.58 | 1 | -0.123 | -0.00141 | 0.0562 |
| PDGFRL | 0.0429 | 0.958 | -0.0886 | -0.245 | -0.0838 |
| MAPKAPK2 | -3.71 (active) | 0.665 | -0.102 | -0.134 | -0.0633 |
| CALM2 | -1.38 | 0.847 | -0.195 | -0.103 | 0.0657 |
| KMT2B | 0.58 | 1 | -0.161 | 0.0389 | 0.0657 |
| PFKFB1 | 0.58 | 1 | -0.16 | 0.0576 | 0.0604 |
| LCK | 0.58 | 1 | -0.205 | -0.0064 | -0.0235 |
| HCK | 0.58 | 1 | 0.0032 | -0.0825 | 0.129 |
| BCR | 0.139 | 0.966 | -0.192 | -0.175 | 0.084 |
| BRD4 | -0.812 | 0.891 | -0.107 | -0.297 | 0.0108 |
| NTRK2 | 0.304 | 0.978 | -0.288 | -0.125 | -0.0208 |
| PIP5K1B | 0.58 | 1 | -0.166 | -0.134 | 0.0459 |
| SGK3 | 0.58 | 1 | -0.262 | -0.211 | 0.0541 |
| CRIM1 | -0.0781 | 0.949 | -0.118 | -0.173 | 0.0806 |
| HSPB8 | -0.342 | 0.928 | -0.179 | -0.0556 | 0.00597 |
| MAPK15 | 0.58 | 1 | -0.272 | -0.0859 | -0.0889 |
| COQ8B | -0.125 | 0.945 | -0.0661 | 0.0919 | 0.0906 |
| CDK14 | 0.58 | 1 | -0.193 | -0.211 | -0.0807 |
| BRWD1 | 0.0958 | 0.962 | -0.157 | 0.0147 | 0.176 |
| PSTK | 0.58 | 1 | -0.189 | 0.0315 | -0.0268 |
| RIOK2 | 0.58 | 1 | -0.161 | -0.101 | 0.0424 |
| RIPK4 | 0.58 | 1 | -0.139 | -0.18 | -0.083 |
| EPHA4 | -0.883 | 0.886 | -0.249 | -0.109 | -0.0602 |
| PAPSS1 | 0.58 | 1 | -0.205 | -0.211 | 0.00561 |
| TEK | 0.58 | 1 | -0.195 | -0.175 | -0.0453 |
| MAPK6 | 0.58 | 1 | 0.0088 | -0.131 | 0.119 |
| SOS2 | 0.58 | 1 | -0.217 | -0.0888 | -0.0307 |
| DBF4 | 0.58 | 1 | -0.243 | -0.211 | -0.0384 |
| NEK6 | 0.58 | 1 | -0.246 | -0.211 | -0.0987 |
| PIK3C2G | -1.44 | 0.842 | -0.17 | -0.0912 | 0.05 |
| CDK8 | 0.58 | 1 | -0.272 | -0.187 | -0.192 |
| PRKG2 | 0.58 | 1 | -0.272 | -0.211 | -0.0454 |
| SIK2 | 0.58 | 1 | -0.0872 | -0.155 | -0.0288 |
| STK26 | 0.58 | 1 | 0.00744 | -0.14 | 0.0211 |
| FER | 0.58 | 1 | -0.191 | -0.00701 | -0.0196 |
| RPS6KA6 | 0.58 | 1 | -0.172 | -0.211 | 0.0341 |
| BUB1 | 0.0481 | 0.958 | -0.132 | -0.0568 | -0.0219 |
| TESK2 | 0.58 | 1 | -0.056 | -0.0817 | 0.0606 |
| PRKAA1 | 0.58 | 1 | -0.257 | -0.211 | 0.0156 |
| IPPK | -1.79 | 0.815 | -0.141 | -0.261 | -0.0253 |
| INSR | 0.58 | 1 | -0.149 | -0.211 | -0.126 |
| CAMKK2 | 0.58 | 1 | -0.159 | -0.0199 | -0.0563 |
| FASTK | 0.38 | 0.984 | -0.148 | -0.202 | -0.0697 |

In a second layout: results already given
PIP5K1B — robust z-score, knock-down alone: 0.58; viability vs control pool, no drug (fraction): 1; synergy score with BYL719: -0.166; synergy score with cetuximab: -0.134; synergy score with trametinib: 0.0459
SGK3 — robust z-score, knock-down alone: 0.58; viability vs control pool, no drug (fraction): 1; synergy score with BYL719: -0.262; synergy score with cetuximab: -0.211; synergy score with trametinib: 0.0541
CRIM1 — robust z-score, knock-down alone: -0.0781; viability vs control pool, no drug (fraction): 0.949; synergy score with BYL719: -0.118; synergy score with cetuximab: -0.173; synergy score with trametinib: 0.0806
HSPB8 — robust z-score, knock-down alone: -0.342; viability vs control pool, no drug (fraction): 0.928; synergy score with BYL719: -0.179; synergy score with cetuximab: -0.0556; synergy score with trametinib: 0.00597
MAPK15 — robust z-score, knock-down alone: 0.58; viability vs control pool, no drug (fraction): 1; synergy score with BYL719: -0.272; synergy score with cetuximab: -0.0859; synergy score with trametinib: -0.0889
COQ8B — robust z-score, knock-down alone: -0.125; viability vs control pool, no drug (fraction): 0.945; synergy score with BYL719: -0.0661; synergy score with cetuximab: 0.0919; synergy score with trametinib: 0.0906
CDK14 — robust z-score, knock-down alone: 0.58; viability vs control pool, no drug (fraction): 1; synergy score with BYL719: -0.193; synergy score with cetuximab: -0.211; synergy score with trametinib: -0.0807
BRWD1 — robust z-score, knock-down alone: 0.0958; viability vs control pool, no drug (fraction): 0.962; synergy score with BYL719: -0.157; synergy score with cetuximab: 0.0147; synergy score with trametinib: 0.176
PSTK — robust z-score, knock-down alone: 0.58; viability vs control pool, no drug (fraction): 1; synergy score with BYL719: -0.189; synergy score with cetuximab: 0.0315; synergy score with trametinib: -0.0268
RIOK2 — robust z-score, knock-down alone: 0.58; viability vs control pool, no drug (fraction): 1; synergy score with BYL719: -0.161; synergy score with cetuximab: -0.101; synergy score with trametinib: 0.0424
